# Hit rate of the full screen: of about 310,000 compounds, about 17,000 (5.5%) were called active. Inconclusive means that the source gave no clear call. Such entries were picked first, then a sample of the others. Calls come from the whole dose curve; as a rule, active = well fitted inhibition curve with a large enough effect; inconclusive = small, poorly fitted or top-dose-only effect, or effect the other way; inactive = no such curve, though single readings can be large or run the other way. Where the call is inconclusive, the potency comes from a doubtful curve fit.
# Amino acid sequences for entries named in this document (tags omitted). A change or cut given only in a name is not applied to a line headed by its entry.
# UniProt P51450: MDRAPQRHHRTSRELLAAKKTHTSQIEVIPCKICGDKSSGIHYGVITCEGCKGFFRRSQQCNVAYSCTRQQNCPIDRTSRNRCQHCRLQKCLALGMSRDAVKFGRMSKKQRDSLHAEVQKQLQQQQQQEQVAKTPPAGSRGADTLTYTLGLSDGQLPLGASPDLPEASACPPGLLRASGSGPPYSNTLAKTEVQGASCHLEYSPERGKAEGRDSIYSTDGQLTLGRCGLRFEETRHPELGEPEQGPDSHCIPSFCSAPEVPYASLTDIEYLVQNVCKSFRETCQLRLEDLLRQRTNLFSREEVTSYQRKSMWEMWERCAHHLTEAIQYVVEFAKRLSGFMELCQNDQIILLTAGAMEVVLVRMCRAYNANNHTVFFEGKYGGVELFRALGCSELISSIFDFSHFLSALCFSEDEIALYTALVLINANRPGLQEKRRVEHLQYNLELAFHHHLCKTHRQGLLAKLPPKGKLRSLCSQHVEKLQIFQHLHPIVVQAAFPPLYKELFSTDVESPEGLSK
# Target: Nuclear receptor ROR-gamma (Mus musculus) (UniProt P51450)
# Test: qHTS for inhibitors of ROR gamma transcriptional activity; note: nearly all actives have a fitted effect of over 60% in size
# Conditions: Drosophila S2 Gal4-RORgamma UAS-luciferase reporter, 20 h; activity change, negative = inhibition: at 53.6 µM (top of the series)
# Summary of the method: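 In this cell-based reporter format, copper sulfate (700 uM final) drives Gal4–ROR gamma fusion expression from a metallothionein promoter in Drosophila Schneider cells; compounds preincubated 1 hr, reporter read after 20 hr at ambient temperature.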
# % is set by controls: 0 for no effect and ±100 for the full control effect; potency is the fitted concentration of half-maximal effect.
Structure (SMILES),Potency,"activity change, negative = inhibition"
Cc1cccc(NC(=O)c2sc3nc(N)c(C#N)cc3c2N)c1,"inconclusive: 1.41 µM [activator, full curve]",
Cc1nc2ccc(N=NN(C)C)cc2[nH]1,,inactive: 1.12%
Brc1cccc(-c2nnc(-c3ccccc3)o2)c1,"inconclusive: 0.251 µM [activator, full curve, poor fit]",
O=C(Nc1cc(-c2ccccc2)[nH]n1)c1ccccc1F,,inactive: -42.1%
CN1CCN(C(=S)NC(=O)c2cccc(S(=O)(=O)N(C)C)c2)CC1,active: 14.1 µM,
C=CCc1c(Cl)nc(C)nc1NCc1ccccc1,"inconclusive: 35.5 µM [activator, single point]",
COc1cc(/C=N/NC(=O)c2cn(-c3cccc(C)n3)cn2)ccc1O,,inactive: 23.9%
O=C(Nc1nc2ccccc2[nH]1)C1CC1,"inconclusive: 35.5 µM [inhibitor, single point]",
CCOc1cc(NC(=S)NCC2CCCO2)c(OCC)cc1NC(=O)c1cccc(F)c1 (stereo not given),active: 3.55 µM,
CN1CCN(C(=O)c2cc(Oc3c(F)c(F)c(F)c(F)c3F)cc(C(=O)N3CCN(C)CC3)c2)CC1,,inactive: 2.58%
COC(=O)C1=NN(C(=O)c2ccc(Br)cc2)C(O)(C(C)(C)C)C1 (stereo not given),"inconclusive: 8.91 µM [inhibitor, partial curve, poor fit]",
Cc1cccc(C2=NN(c3ccc(Br)cc3)[C@@H](C(=O)N3CCOC3=O)[C@@H]2c2ccccc2)c1,,inactive: 18.8% [at 40.7 µM]
CC1CCCCC1NC(=S)Nc1cccc(S(=O)(=O)N(C)C)c1 (stereo not given),"inconclusive: 22.4 µM [inhibitor, single point]",
Cc1ccc(S(=O)(=O)N2Cc3ccccc3CC2C(=O)Nc2ccc3c(c2)OCO3)cc1 (stereo not given),"inconclusive: 14.1 µM [activator, single point]",
CSc1ccccc1-c1nnc(NC(=O)Cc2ccccc2)o1,active: 1 µM,
COC(=O)C(NC(C)=O)(Nc1nc2c(s1)CCCC2)C(F)(F)F (stereo not given),,inactive: 0.2%
CC1(C)Cc2cccc(OCC(O)CN3CCN(c4ccccn4)CC3)c2O1 (stereo not given),,inactive: -21.8%
COCCn1c(C)cc(C(=O)COC(=O)c2ccc([N+](=O)[O-])o2)c1C,active: 12.6 µM,
Cc1ccc(-n2c(C(C)C)nc3oc4ccccc4c(=O)c3c2=O)cc1,"inconclusive: 17.8 µM [activator, partial curve, poor fit]",
COc1ccc(/C=N/NC(=O)CN(c2ccc(OC)cc2)S(=O)(=O)c2ccccc2)cc1,,inactive: 33.2%
Fc1ccc2c(c1)C(c1ccncc1)=NNC(c1ccc(Cl)cc1)=N2,"inconclusive: 35.5 µM [inhibitor, single point]",
Cc1cccc(-n2c(SCC(=O)Nc3ccc4c(c3)OCO4)nnc2-c2ccoc2C)c1,active: 2 µM,
FC(F)Oc1ccc(NC(=S)NCCc2ccccn2)cc1,active: 4.47 µM,
CCOc1ccc(S(=O)(=O)NNC(=S)Nc2ccc(Br)cc2)cc1,"inconclusive: 11.2 µM [inhibitor, partial curve, poor fit]",
Cc1c(C(=O)OCC(=O)c2c(N)n(CC(C)C)c(=O)n(C)c2=O)oc2ccccc12,"inconclusive: 7.08 µM [activator, full curve]",

Structure (SMILES),Potency,"activity change, negative = inhibition"
O=C(c1cc2ccccc2oc1=O)N(c1ccccc1)C1C=CS(=O)(=O)C1 (stereo not given),"inconclusive: 35.5 µM [inhibitor, single point]",
Oc1ccccc1CNc1nc2ccccc2n1CCN1CCCCC1,"inconclusive: 1.12 µM [inhibitor, full curve, poor fit]",
Cc1cc(C)c(NC(=S)N(CCc2ccncc2)C(C)C)c(C)c1,,inactive: 0.0652%
Nn1c(SCC(=O)NC(=O)NCc2ccco2)nnc1-c1ccc(OC(F)F)cc1,,inactive: -10%
CN1CCC(=C2c3ccccc3Sc3ccccc32)CC1,inactive,
CCOC(=O)c1ccccc1NC(=S)N1CCN(C(=O)c2ccco2)CC1,,inactive: -9.6%
COc1ccc(C2=NOC(C(=O)Nc3cc(Br)ccc3O)C2)cc1OC (stereo not given),"inconclusive: 17.8 µM [activator, single point]",
C/C(CC(=O)Nc1ccc(N(C)C)cc1)=N\NC(=O)c1ccc(Cl)cc1Cl,active: 11.2 µM,
CCCCNC(=S)N/N=C/c1sccc1C,active: 1.12 µM,
CCN(CC)S(=O)(=O)c1csc(C(=O)OCC(=O)c2ccccc2)c1,"inconclusive: 15.8 µM [activator, single point]",
COc1ccc(CSCC(=O)Nc2ccc(S(=O)(=O)N3CCCCCC3)cc2)cc1,"inconclusive: 35.5 µM [activator, single point]",
Cc1cc(C)c2c(N)c(C(=O)N/N=C/c3cccnc3)sc2n1,,inactive: 41.8%
Cc1ccc(C)c(NS(=O)(=O)c2ccc(OCC(=O)NCc3ccco3)cc2)c1,,inactive: 6.58%
CCCCNC(=S)N(C)/N=C/c1ccc(F)cc1,active: 11.2 µM,
Cc1cc(Cl)ccc1NC(=S)N1CCN(Cc2ccc3c(c2)OCO3)CC1,"inconclusive: 35.5 µM [inhibitor, single point]",
O=C(Cc1cccc2ccccc12)N/N=C/c1ccc(Sc2cccc3cccnc23)o1,"inconclusive: 20 µM [inhibitor, single point]",
Cc1cccc(-n2ncc3c(NC(C)C)ncnc32)c1,"inconclusive: 15.8 µM [inhibitor, single point]",
COc1ccc(CNC(=S)Nc2ccccc2)cc1Cl,"inconclusive: 35.5 µM [inhibitor, single point]",
COc1cc(C(=O)N2CCN(C/C=C/c3ccccc3)CC2)cc(OC)c1OC,,inactive: -16.1%
COc1ccc(OCCn2c(NC(=O)c3ccco3)nc3ccccc32)cc1,active: 2.24 µM,
Cc1cc(SCC(=O)NCCN2C(=O)CSC2=O)nc2ccccc12,active: 11.2 µM,
COc1ccc(NC(=O)CSc2nc3sc(C)cc3c(=O)n2C)c(OC)c1,"inconclusive: 15.8 µM [activator, partial curve]",
COCCn1c(=O)[nH]c2cc(C(=O)N3CCN(c4ccccc4)CC3)ccc2c1=O,,inactive: 0.0639%
CC1CC2(CCCCC2)Nc2c1ccc1ccccc21 (stereo not given),"inconclusive: 4.47 µM [activator, single point]",
CC(C)[C@H](NC(=O)c1ccccc1)C(=O)OCC(=O)Nc1ccc2c(c1)OCCO2,"inconclusive: 17.8 µM [activator, single point]",

# Of the compounds above, 4 contain an NH in an aromatic ring:
Structure (SMILES),Potency,"activity change, negative = inhibition"
Cc1nc2ccc(N=NN(C)C)cc2[nH]1,,inactive: 1.12%
O=C(Nc1cc(-c2ccccc2)[nH]n1)c1ccccc1F,,inactive: -42.1%
O=C(Nc1nc2ccccc2[nH]1)C1CC1,"inconclusive: 35.5 µM [inhibitor, single point]",
COCCn1c(=O)[nH]c2cc(C(=O)N3CCN(c4ccccc4)CC3)ccc2c1=O,,inactive: 0.0639%

# — PubChem BioAssay AID2551 (National Center for Advancing Translational Sciences (NCATS), 2010)
